Test results from patent publication US10327423B2, “Antimicrobial compounds and compositions, and uses thereof” (Akeso Biomedical, Inc., priority 2014, dated 2019).

Experiments:
[1] = tested on: wild type Campylobacter jejuni NCTC 11168; assay: LC-MS metabolomic analysis of spent media; format: cell-based; conditions: FeQ 340 μM, 48 hours in MHB
[2] = tested on: Campylobacter jejuni mutant (MOMP268T/G); assay: LC-MS metabolomic analysis of spent media; format: cell-based; conditions: FeQ 340 μM, 48 hours in MHB

With `O=C1[O][Fe]23([O]C(=O)[C@]4(C[C@@H](O)[C@H](O)[C@H](O)C4)[O]2)([O]C(=O)[C@]2(C[C@@H](O)[C@H](O)[C@H](O)C2)[O]3)[O][C@@]12C[C@@H](O)[C@H](O)[C@H](O)C2` [FeQ, a complex of quinic acid with Fe III] the “separation of spent media metabolite profiles with and without FeQ (OPLS-DA)” value (“separation … with and without FeQ (OPLS-DA)” below) ([1]; negative mode) was “clear separation”, the “separation … with and without FeQ (OPLS-DA)” value ([1]; positive mode) was “clear separation” and the “separation … with and without FeQ (OPLS-DA)” value ([2]; negative mode) was “clear separation”. For the same molecule, the “separation … with and without FeQ (OPLS-DA)” value ([2]; positive mode) was “does not cause large detectable change”.
